Results reported in patent publication US6476196.

Tests used:
[1] = target: Rat ER-β ligand-binding domain (LBD) (rat); test: X-ray co-crystal structure; LBD with estradiol
[2] = target: Rat ER-β ligand-binding domain (LBD) (rat); test: X-ray co-crystal structure; LBD with 17-epiestriol
[3] = target: Rat ER-β ligand-binding domain (LBD) (rat); test: X-ray co-crystal structure, about 2.1 Å; LBD with estradiol, LBD and peptide mixed 1:5
[4] = target: Rat ER-β ligand-binding domain (LBD) (rat); test: X-ray co-crystal structure, about 1.8 Å; LBD with 17-epiestriol, LBD and peptide mixed 1:5

Measured: binding

B1: LXXLL coactivator peptide …, residues 338-354 of the coactivator independent of AF2 function (CIA) (peptide)
peptide: HPPAIQSLINLLADNRY
binds: [1] | [2] | [3] | [4]

No constants are given. Whether binding was seen depends on the method and setting. A result given as binding can be weak or reduced; the word gives no strength.
